Experimental data reported in US7785835.
Results are given in words; binding and its absence hold for the method and conditions named. Some binding calls cover weakened binding; strength is not graded here.

Sequences of proteins named here, by UniProt entry; tags and fusion partners are left off. Residues count along the entry.
UniProt P04004, residues 20-478: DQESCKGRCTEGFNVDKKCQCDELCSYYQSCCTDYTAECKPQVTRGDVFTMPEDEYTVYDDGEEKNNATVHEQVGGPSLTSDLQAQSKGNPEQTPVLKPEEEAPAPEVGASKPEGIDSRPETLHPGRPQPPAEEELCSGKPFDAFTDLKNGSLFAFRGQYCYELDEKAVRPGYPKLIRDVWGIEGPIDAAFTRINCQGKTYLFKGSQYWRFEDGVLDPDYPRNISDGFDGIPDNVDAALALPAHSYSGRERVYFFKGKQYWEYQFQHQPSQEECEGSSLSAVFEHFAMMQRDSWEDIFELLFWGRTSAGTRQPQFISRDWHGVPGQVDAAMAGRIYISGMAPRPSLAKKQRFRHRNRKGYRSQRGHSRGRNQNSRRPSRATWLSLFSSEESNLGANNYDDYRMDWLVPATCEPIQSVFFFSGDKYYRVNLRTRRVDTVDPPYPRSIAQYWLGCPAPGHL
UniProt P17936, residues 28-291: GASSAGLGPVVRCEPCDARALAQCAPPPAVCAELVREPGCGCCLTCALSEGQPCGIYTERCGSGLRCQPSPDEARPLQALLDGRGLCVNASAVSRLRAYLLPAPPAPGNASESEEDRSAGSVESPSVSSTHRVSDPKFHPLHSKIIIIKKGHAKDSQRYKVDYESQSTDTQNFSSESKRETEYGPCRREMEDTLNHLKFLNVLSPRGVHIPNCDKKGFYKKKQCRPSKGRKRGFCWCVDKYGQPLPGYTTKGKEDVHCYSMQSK
UniProt P18065, residues 36-325: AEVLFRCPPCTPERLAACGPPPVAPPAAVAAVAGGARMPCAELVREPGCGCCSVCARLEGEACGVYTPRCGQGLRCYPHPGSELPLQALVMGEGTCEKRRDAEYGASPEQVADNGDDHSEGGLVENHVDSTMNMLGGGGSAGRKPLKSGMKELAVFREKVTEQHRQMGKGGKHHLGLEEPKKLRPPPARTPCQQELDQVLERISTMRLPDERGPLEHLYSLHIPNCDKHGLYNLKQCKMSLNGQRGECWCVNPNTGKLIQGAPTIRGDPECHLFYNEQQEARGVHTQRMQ
UniProt P24593, residues 21-272: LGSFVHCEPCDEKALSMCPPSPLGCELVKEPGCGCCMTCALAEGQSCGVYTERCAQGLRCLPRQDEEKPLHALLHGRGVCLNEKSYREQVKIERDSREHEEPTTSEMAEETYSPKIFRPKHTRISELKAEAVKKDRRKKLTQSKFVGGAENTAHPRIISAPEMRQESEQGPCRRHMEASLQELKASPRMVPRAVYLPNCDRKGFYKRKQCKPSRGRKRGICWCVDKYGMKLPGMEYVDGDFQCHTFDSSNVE

Experiments:
vitronectin [1] = molecular target: vitronectin (UniProt P04004); assay: radiolabelled IGF-I or IGF-II bound to VN-coated wells in the presence of non-glycosylated IGFBP-3 (E. coli); IGFBP-3:VN binding read through the labelled IGF
vitronectin [2] = molecular target: vitronectin (UniProt P04004); assay: [^125I]-IGF-I bound to VN-coated wells in the presence of IGFBP
vitronectin [3] = molecular target: vitronectin (UniProt P04004); assay: [^125I]-IGF-II bound to VN-coated wells in the presence of IGFBP-5; IGFBP:VN binding read through labelled IGF-II
vitronectin [4] = molecular target: vitronectin (UniProt P04004); assay: [^125I]-IGF-I bound to VN-coated wells with glycosylated IGFBP-3; IGFBP:VN binding read through labelled IGF-I

Substance | binding (vitronectin [1]) | binding (vitronectin [2]) | binding (vitronectin [3]) | binding (vitronectin [4])
non-glycosylated recombinant IGFBP-3 produced in E. coli (from UniProt P17936 28-291) | binds | – | – | –
recombinant IGFBP-2 produced in mammalian cells (from UniProt P18065 36-325) | – | binds | – | –
recombinant IGFBP-5 produced in mammalian cells (from UniProt P24593 21-272) | – | binds | binds | –
recombinant glycosylated IGFBP-3 produced in mammalian cells (from UniProt P17936 28-291) | – | binds | – | binds
